Data as given in article PMC7846277.

Amino acid sequences for entries named in this document (tags omitted).
UniProt P40958: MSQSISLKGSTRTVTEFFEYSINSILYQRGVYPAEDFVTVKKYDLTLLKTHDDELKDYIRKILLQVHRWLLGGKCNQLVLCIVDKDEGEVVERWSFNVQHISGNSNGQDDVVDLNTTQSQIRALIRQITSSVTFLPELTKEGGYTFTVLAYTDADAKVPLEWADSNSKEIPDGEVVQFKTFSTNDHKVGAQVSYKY

T1: Dsn1–6His-3FLAG (S. cerevisiae (strain SK1)) (UniProt P40568)
T1 sequence: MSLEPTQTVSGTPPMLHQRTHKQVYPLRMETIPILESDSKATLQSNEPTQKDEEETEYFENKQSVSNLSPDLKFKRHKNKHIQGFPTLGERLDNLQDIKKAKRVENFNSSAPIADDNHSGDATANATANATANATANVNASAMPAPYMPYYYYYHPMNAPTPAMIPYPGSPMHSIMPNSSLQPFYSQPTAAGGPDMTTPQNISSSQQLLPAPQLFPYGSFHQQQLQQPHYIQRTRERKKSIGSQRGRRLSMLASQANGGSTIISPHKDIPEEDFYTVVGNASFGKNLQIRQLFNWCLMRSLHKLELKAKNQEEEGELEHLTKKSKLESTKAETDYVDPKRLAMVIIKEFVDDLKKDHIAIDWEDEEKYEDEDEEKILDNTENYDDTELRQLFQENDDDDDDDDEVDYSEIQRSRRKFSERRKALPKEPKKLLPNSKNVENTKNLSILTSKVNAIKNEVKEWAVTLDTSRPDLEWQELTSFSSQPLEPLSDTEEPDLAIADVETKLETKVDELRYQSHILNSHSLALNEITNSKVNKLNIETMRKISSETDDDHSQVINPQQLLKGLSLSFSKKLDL


target: T1, Dsn1–6His-3FLAG (S. cerevisiae (strain SK1)); test: affinity purification with mass spectrometry; as a1, cells arrested in meiotic metaphase I (pCLB2-CDC20), compared with prophase I cells

Row | Molecule | binding
1 | Zip1^SYCP1 (protein, UniProt P31111 1-875) MSNFFRDSSMGFKPRPNIFAKLRVRDVDSDSSANTVVENSSNCLDVGSSIEGDDTFKKPHKTSTEQELITSMSLSQRNHGYSDDMEIGSPKKTTSTDQYNRILKNDVAAIENDTDEDFEITEVREVSEGVAKETKESHGDPNDSETTLKDSKMHEYTMTNGKAPLHTSINNSSTSSNDVLLEAFTNTQRICSNLKQELQKQQQDNAKLKVRLQSYASNSDKINEKVGKYKSCLETLQERIATLTSHKNNQETKLKDLRQNHQLYQRRISGFKTSIENLNKTINDLGKNKKEADAELMKKGKEIEYLKRELDDCSGQLSEEKIKNSSLIQEMGKNREEMIKSIENFFSEDKAHHLLQFNKFEERVHDLFEKKLQKHFDVAKDTLNVGLRNTTVELSSNTETMLKQQYEDIKENLEQKMSSSKDEMAKTINELSVTQKGLIMGVQEELLTSSGNIQTALVSEMNNTRQELLDDASQTAKNYASLENLVKAYKAEIVQSNEYEERIKHLESERSTLSSQKNQIISSLGTKEAQYEDLVKKLEAKNIEISQISGKEQSLTEKNENLSNELKKVQDQLEKLNNLNITTKSNYENKISSQNEIVKALVSENDTLKQRIQQLVEIKENEQKDHTTKLEAFQKNNEQLQKLNVEVVQLKAHELELEEQNRHLKNCLEKKETGVEESLSDVKTLKQQVIVLKSEKQDITAEKLELQDNLESLEEVTKNLQQKVQSQKRELEQKIKELEEIKNHKRNEPSKKGTQNFTKPSDSPKKNATTSNLFPNNSAAIHSPMKKCPKVDHISKSRINSSKETSKFNDEFDLSSSSNDDLELTNPSPIQIKPVRGKIKKGSNCMKPPISSRKKLLLVEDEDQSLKISKKRRRK | no binding (only cells arrested in metaphase I)

target: T1, Dsn1–6His-3FLAG (S. cerevisiae (strain SK1)); test: affinity purification with mass spectrometry; anti-FLAG (M2) immunoprecipitation of Dsn1–6His-3FLAG from lysates of cryoground yeast in H0.15 buffer (150 mM KCl, 0.1% NP-40, pH 8.0), 3 h at 4°C, elution with FLAG peptide, label-free quantitative MS; cells cycling, arrested in mitosis (benomyl), in meiotic prophase I (inducible-NDT80) or in metaphase I (pCLB2-CDC20)

Row | Molecule | binding
2 | Mad2^MAD2 (from UniProt P40958 1-196) | binds
3 | Zip1^SYCP1 (protein, UniProt P31111 1-875) MSNFFRDSSMGFKPRPNIFAKLRVRDVDSDSSANTVVENSSNCLDVGSSIEGDDTFKKPHKTSTEQELITSMSLSQRNHGYSDDMEIGSPKKTTSTDQYNRILKNDVAAIENDTDEDFEITEVREVSEGVAKETKESHGDPNDSETTLKDSKMHEYTMTNGKAPLHTSINNSSTSSNDVLLEAFTNTQRICSNLKQELQKQQQDNAKLKVRLQSYASNSDKINEKVGKYKSCLETLQERIATLTSHKNNQETKLKDLRQNHQLYQRRISGFKTSIENLNKTINDLGKNKKEADAELMKKGKEIEYLKRELDDCSGQLSEEKIKNSSLIQEMGKNREEMIKSIENFFSEDKAHHLLQFNKFEERVHDLFEKKLQKHFDVAKDTLNVGLRNTTVELSSNTETMLKQQYEDIKENLEQKMSSSKDEMAKTINELSVTQKGLIMGVQEELLTSSGNIQTALVSEMNNTRQELLDDASQTAKNYASLENLVKAYKAEIVQSNEYEERIKHLESERSTLSSQKNQIISSLGTKEAQYEDLVKKLEAKNIEISQISGKEQSLTEKNENLSNELKKVQDQLEKLNNLNITTKSNYENKISSQNEIVKALVSENDTLKQRIQQLVEIKENEQKDHTTKLEAFQKNNEQLQKLNVEVVQLKAHELELEEQNRHLKNCLEKKETGVEESLSDVKTLKQQVIVLKSEKQDITAEKLELQDNLESLEEVTKNLQQKVQSQKRELEQKIKELEEIKNHKRNEPSKKGTQNFTKPSDSPKKNATTSNLFPNNSAAIHSPMKKCPKVDHISKSRINSSKETSKFNDEFDLSSSSNDDLELTNPSPIQIKPVRGKIKKGSNCMKPPISSRKKLLLVEDEDQSLKISKKRRRK | binds
4 | Bub1^BUB1 (protein, UniProt P41695 1-1021) MNLDLGSTVRGYESDKDTFPQSKGVSSSQKEQHSQLNQTKIAYEQRLLNDLEDMDDPLDLFLDYMIWISTSYIEVDSESGQEVLRSTMERCLIYIQDMETYRNDPRFLKIWIWYINLFLSNNFHESENTFKYMFNKGIGTKLSLFYEEFSKLLENAQFFLEAKVLLELGAENNCRPYNRLLRSLSNYEDRLREMNIVENQNSVPDSRERLKGRLIYRTAPFFIRKFLTSSLMTDDKENRANLNSNVGVGKSAPNVYQDSIVVADFKSETERLNLNSSKQPSNQRLKNGNKKTSIYADQKQSNNPVYKLINTPGRKPERIVFNFNLIYPENDEEFNTEEILAMIKGLYKVQRRGKKHTEDYTSDKNRKKRKLDVLVERRQDLPSSQPPVVPKSTRIEVFKDDDNPSQSTHHKNTQVQVQTTTSILPLKPVVDGNLAHETPVKPSLTSNASRSPTVTAFSKDAINEVFSMFNQHYSTPGALLDGDDTTTSKFNVFENFTQEFTAKNIEDLTEVKDPKQETVSQQTTSTNETNDRYERLSNSSTRPEKADYMTPIKETTETDVVPIIQTPKEQIRTEDKKSGDNTETQTQLTSTTIQSSPFLTQPEPQAEKLLQTAEHSEKSKEHYPTIIPPFTKIKNQPPVIIENPLSNNLRAKFLSEISPPLFQYNTFYNYNQELKMSSLLKKIHRVSRNENKNPIVDFKKTGDLYCIRGELGEGGYATVYLAESSQGHLRALKVEKPASVWEYYIMSQVEFRLRKSTILKSIINASALHLFLDESYLVLNYASQGTVLDLINLQREKAIDGNGIMDEYLCMFITVELMKVLEKIHEVGIIHGDLKPDNCMIRLEKPGEPLGAHYMRNGEDGWENKGIYLIDFGRSFDMTLLPPGTKFKSNWKADQQDCWEMRAGKPWSYEADYYGLAGVIHSMLFGKFIETIQLQNGRCKLKNPFKRYWKKEIWGVIFDLLLNSGQASNQALPMTEKIVEIRNLIESHLEQHAENHLRNVILSIEEELSHFQYKGKPSRRF | binds
5 | Kre28^Zwint (protein, UniProt Q04431 1-385) MDTGSASIKDYETVLTDIEDSIAVSSEEVLNNQELRLKNTLHEITSSILAINEENKFVNPLRNDESLDVEGKEVFVNPKILSAKIKEFNKLMELLKLTYLEQETLDYFFRFTLSSTKPLQLDSEKDPQFVKLNERVNDLKEEISNVQESKIEQIKAEIQETGHNFAERQDLINELYLEATGDIENCWDSLNELKNLTNKEDKNMMGEKDTILNSSDSDDFVEETYTNWQKLLFLQKQNQRLTKELKEMHEVKNQIIRKGEQSKKEDSGHLMANESELCQSINLLTKFWEKHFLLKGSKTTILNFEIFTQLGKVQFEIKDMQYIIAISLSDLKRPMIKDITILQKAGGNIVTDIEASSKFNNKYRNNTKVQIFEVMDDIISELTNE | binds

Second part, the molecule after the results:

Row | binding | Molecule
6 | binds | Bub3^BUB3 (protein, UniProt P26449 1-341) MQIVQIEQAPKDYISDIKIIPSKSLLLITSWDGSLTVYKFDIQAKNVDLLQSLRYKHPLLCCNFIDNTDLQIYVGTVQGEILKVDLIGSPSFQALTNNEANLGICRICKYGDDKLIAASWDGLIEVIDPRNYGDGVIAVKNLNSNNTKVKNKIFTMDTNSSRLIVGMNNSQVQWFRLPLCEDDNGTIEESGLKYQIRDVALLPKEQEGYACSSIDGRVAVEFFDDQGDDYNSSKRFAFRCHRLNLKDTNLAYPVNSIEFSPRHKFLYTAGSDGIISCWNLQTRKKIKNFAKFNEDSVVKIACSDNILCLATSDDTFKTNAAIDQTIELNASSIYIIFDYEN
7 | binds | Mad1^MAD1 (protein, UniProt P40957 1-749) MDVRAALQCFFSALSGRFTGKKLGLEIYSIQYKMSNSGGSSPFLESPGGSPDVGSTNGQSNRQIQALQFKLNTLQNEYEIEKLQLQKQTNILEKKYKATIDELEKALNDTKYLYESNDKLEQELKSLKERSANSMNDKDKCIEELRTTLQNKDLEMETLRQQYDSKLSKVTNQCDHFKLEAESSHSLLMKYEKEIKRQSVDIKDLQHQVMEKDDELSSVKASKMINSHPNYSTEEFNELTEMNKMIQDQVQYTKELELANMQQANELKKLKQSQDTSTFWKLENEKLQNKLSQLHVLESQYENLQLENIDLKSKLTKWEIYNDSDDDDDNNVNNNDNNNNNKNDNNNDNNNDTSNNNNINNNNRTKNNIRNNPEEIIRDWKLTKKECLILTDMNDKLRLDNNNLKLLNDEMALERNQILDLNKNYENNIVNLKRLNHELEQQKSLSFEECRLLREQLDGLYSAQNNALLEVENSETHASNKNVNEDMNNLIDTYKNKTEDLTNELKKLNDQLLSNSNDVETQRKKRKLTSDQIGLNYSQRLNELQLENVSVSRELSKAQTTIQLLQEKLEKLTKLKEKKIRILQLRDGPFIKDQFIKKNKLLLLEKENADLLNELKKNNPAVETVPISVYDSLNFELKQFEQEVFKSNKRFSRLKQVFNNKSLEFIDVVNSLLGFKLEFQQDSRVKIFSCFKPEKYLIADLNENTLKSNLDADIEGWDDLMNLWVEDRGQLPCFLATITLRLWEQRQAK
8 | binds | Cdc5^Plk1 (enzyme, UniProt P32562 1-705) MSLGPLKAINDKQLNTRSKLVHTPIKGNTADLVGKENHFKQTKRLDPNNDHHHQPAQKKKREKLSALCKTPPSLIKTRGKDYHRGHFLGEGGFARCFQIKDDSGEIFAAKTVAKASIKSEKTRKKLLSEIQIHKSMSHPNIVQFIDCFEDDSNVYILLEICPNGSLMELLKRRKVLTEPEVRFFTTQICGAIKYMHSRRVIHRDLKLGNIFFDSNYNLKIGDFGLAAVLANESERKYTICGTPNYIAPEVLMGKHSGHSFEVDIWSLGVMLYALLIGKPPFQARDVNTIYERIKCRDFSFPRDKPISDEGKILIRDILSLDPIERPSLTEIMDYVWFRGTFPPSIPSTVMSEAPNFEDIPEEQSLVNFKDCMEKSLLLESMSSDKIQRQKRDYISSIKSSIDKLEEYHQNRPFLPHSLSPGGTKQKYKEVVDIEAQRRLNDLAREARIRRAQQAVLRKELIATSTNVIKSEISLRILASECHLTLNGIVEAEAQYKMGGLPKSRLPKIKHPMIVTKWVDYSNKHGFSYQLSTEDIGVLFNNGTTVLRLADAEEFWYISYDDREGWVASHYLLSEKPRELSRHLEVVDFFAKYMKANLSRVSTFGREEYHKDDVFLRRYTRYKPFVMFELSDGTFQFNFKDHHKMAISDGGKLVTYISPSHESTTYPLVEVLKYGEIPGYPESNFREKLTLIKEGLKQKSTIVTVD

No constants are given. Whether binding was seen depends on the method and setting. In cells and extracts the contact can be indirect. A yes stands for co-enrichment or nearness to the bait. Other partners may have been found. For some assays here: A no says only that the protein was not detected with the bait. Sequences can lack the tags named with a protein.
